Results as given in article doi:10.1101/2022.06.17.496577.
No constants are given. Whether binding was seen depends on the method and setting. Binding seen in cells or lysates may run through a third protein. Some results given as binding are weak or reduced against the parent protein; the word gives no strength. For some assays here: Sequences can lack the tags named with a protein.

Amino acid sequences for entries named in this document (tags omitted).
UniProt Q96JI7: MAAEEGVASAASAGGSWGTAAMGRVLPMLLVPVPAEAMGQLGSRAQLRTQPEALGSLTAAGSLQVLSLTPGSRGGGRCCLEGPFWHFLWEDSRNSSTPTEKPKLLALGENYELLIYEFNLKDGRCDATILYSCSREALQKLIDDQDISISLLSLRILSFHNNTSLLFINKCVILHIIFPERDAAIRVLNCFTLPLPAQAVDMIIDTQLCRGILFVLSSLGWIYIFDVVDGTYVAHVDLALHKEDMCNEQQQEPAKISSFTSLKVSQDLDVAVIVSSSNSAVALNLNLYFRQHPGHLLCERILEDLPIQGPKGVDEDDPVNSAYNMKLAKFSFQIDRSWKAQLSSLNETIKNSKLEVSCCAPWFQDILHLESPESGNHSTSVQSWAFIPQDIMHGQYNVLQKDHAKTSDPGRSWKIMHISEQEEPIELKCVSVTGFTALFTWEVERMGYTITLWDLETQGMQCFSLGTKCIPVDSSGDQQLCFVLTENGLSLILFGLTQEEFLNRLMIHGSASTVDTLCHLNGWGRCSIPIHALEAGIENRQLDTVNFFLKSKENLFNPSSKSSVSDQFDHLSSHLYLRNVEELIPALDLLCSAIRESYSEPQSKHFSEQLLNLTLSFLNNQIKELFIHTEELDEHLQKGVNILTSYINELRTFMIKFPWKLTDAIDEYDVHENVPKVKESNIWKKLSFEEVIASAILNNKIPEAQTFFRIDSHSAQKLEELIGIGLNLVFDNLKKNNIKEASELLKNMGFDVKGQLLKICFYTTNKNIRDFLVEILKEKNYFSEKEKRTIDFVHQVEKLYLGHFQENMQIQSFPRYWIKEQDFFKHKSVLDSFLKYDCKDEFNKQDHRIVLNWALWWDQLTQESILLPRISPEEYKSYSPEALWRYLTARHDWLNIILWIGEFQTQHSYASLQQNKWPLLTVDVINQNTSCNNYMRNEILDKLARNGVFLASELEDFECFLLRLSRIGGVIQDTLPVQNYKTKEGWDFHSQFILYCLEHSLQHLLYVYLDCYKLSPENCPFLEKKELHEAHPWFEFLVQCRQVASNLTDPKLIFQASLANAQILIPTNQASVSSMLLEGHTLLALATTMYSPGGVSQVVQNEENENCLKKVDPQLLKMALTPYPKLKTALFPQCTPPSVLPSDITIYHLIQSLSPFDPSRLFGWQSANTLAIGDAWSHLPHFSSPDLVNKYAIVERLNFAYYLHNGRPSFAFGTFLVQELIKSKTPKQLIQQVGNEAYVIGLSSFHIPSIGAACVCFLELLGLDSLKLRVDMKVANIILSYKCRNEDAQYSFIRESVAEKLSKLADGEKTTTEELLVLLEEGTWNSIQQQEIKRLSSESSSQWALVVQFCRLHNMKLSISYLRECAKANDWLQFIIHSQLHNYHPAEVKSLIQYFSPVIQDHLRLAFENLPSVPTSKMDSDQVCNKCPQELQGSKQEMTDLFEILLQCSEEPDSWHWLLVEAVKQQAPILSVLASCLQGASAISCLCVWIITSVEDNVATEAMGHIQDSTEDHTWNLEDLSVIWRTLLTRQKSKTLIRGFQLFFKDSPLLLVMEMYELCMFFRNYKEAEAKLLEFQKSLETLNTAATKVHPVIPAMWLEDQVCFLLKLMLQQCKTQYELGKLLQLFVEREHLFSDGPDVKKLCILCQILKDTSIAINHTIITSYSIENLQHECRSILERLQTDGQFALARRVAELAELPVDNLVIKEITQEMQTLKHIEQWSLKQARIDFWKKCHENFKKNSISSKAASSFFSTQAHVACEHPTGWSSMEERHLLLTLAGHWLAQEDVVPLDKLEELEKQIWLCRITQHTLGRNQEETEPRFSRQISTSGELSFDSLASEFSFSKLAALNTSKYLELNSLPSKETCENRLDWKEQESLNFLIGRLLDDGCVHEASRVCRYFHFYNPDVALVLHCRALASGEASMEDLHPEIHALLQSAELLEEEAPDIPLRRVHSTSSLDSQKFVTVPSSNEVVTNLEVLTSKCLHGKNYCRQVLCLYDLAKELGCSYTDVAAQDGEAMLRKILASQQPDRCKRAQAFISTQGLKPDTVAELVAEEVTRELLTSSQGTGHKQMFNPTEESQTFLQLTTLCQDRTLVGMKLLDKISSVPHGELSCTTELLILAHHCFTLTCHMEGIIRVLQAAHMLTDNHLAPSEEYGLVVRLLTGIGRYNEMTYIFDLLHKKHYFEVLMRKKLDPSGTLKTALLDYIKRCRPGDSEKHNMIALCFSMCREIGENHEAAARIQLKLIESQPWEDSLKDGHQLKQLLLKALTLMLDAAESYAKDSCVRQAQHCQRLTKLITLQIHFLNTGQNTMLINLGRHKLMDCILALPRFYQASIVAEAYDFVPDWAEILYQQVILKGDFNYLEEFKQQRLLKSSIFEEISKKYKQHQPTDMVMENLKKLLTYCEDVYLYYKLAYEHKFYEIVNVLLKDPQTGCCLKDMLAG
UniProt Q5DU37: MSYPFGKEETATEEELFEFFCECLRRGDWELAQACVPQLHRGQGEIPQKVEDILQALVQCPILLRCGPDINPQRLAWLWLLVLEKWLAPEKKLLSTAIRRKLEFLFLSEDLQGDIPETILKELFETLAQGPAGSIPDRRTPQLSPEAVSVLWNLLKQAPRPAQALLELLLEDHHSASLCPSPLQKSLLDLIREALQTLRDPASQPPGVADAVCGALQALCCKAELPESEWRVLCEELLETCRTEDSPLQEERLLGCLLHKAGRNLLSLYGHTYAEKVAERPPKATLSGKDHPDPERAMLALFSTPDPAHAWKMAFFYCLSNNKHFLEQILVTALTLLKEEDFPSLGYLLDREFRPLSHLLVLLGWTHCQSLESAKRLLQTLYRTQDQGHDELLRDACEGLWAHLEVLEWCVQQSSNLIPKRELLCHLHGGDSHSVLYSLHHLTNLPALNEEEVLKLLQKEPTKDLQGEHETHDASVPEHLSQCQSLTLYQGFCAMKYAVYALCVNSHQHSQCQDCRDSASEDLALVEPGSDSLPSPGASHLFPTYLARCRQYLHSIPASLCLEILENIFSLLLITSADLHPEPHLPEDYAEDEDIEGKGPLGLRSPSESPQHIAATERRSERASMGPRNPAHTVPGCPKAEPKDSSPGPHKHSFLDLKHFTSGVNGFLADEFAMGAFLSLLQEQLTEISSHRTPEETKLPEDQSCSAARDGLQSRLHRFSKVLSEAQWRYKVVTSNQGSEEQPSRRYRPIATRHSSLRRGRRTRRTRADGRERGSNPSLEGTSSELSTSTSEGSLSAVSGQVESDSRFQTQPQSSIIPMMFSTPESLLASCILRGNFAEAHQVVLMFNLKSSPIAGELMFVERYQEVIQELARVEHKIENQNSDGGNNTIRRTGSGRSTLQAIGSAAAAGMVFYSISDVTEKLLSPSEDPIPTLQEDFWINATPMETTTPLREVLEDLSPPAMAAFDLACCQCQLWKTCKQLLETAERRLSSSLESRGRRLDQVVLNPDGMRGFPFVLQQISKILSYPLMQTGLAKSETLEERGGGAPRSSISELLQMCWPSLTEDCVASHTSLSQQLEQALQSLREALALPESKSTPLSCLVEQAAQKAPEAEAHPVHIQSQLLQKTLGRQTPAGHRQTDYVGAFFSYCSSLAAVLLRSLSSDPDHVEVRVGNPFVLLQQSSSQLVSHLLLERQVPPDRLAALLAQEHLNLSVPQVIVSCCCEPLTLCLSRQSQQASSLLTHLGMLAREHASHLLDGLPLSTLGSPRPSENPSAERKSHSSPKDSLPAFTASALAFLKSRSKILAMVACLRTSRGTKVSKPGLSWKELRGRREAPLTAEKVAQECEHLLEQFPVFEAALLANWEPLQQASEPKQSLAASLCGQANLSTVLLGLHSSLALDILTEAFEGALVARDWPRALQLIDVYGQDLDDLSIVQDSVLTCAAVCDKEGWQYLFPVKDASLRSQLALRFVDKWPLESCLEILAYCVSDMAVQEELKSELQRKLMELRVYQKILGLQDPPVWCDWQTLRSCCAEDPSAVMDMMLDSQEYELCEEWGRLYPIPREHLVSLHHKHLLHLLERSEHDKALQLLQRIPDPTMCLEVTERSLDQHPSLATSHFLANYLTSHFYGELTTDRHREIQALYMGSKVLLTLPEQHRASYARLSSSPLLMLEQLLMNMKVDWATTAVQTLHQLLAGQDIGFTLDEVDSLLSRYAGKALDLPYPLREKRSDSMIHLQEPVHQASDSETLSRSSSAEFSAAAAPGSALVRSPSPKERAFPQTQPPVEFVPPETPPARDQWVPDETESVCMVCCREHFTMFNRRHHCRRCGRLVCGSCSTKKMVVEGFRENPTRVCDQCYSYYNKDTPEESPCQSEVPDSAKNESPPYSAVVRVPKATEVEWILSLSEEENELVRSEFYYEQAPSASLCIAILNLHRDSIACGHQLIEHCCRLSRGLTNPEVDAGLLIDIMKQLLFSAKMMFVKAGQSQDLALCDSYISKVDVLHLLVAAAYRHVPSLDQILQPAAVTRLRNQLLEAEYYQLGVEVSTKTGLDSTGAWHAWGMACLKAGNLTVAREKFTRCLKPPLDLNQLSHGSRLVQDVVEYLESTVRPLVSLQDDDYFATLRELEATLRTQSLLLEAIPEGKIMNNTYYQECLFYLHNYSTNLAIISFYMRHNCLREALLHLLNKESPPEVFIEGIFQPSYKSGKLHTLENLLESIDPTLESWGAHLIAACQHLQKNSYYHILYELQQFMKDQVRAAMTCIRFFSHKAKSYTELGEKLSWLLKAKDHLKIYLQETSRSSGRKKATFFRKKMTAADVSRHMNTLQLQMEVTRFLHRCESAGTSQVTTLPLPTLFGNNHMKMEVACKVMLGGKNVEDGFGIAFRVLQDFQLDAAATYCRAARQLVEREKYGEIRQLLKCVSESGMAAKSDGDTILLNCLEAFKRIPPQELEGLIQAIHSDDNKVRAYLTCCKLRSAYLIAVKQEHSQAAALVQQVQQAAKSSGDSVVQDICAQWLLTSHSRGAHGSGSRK
UniProt O08788: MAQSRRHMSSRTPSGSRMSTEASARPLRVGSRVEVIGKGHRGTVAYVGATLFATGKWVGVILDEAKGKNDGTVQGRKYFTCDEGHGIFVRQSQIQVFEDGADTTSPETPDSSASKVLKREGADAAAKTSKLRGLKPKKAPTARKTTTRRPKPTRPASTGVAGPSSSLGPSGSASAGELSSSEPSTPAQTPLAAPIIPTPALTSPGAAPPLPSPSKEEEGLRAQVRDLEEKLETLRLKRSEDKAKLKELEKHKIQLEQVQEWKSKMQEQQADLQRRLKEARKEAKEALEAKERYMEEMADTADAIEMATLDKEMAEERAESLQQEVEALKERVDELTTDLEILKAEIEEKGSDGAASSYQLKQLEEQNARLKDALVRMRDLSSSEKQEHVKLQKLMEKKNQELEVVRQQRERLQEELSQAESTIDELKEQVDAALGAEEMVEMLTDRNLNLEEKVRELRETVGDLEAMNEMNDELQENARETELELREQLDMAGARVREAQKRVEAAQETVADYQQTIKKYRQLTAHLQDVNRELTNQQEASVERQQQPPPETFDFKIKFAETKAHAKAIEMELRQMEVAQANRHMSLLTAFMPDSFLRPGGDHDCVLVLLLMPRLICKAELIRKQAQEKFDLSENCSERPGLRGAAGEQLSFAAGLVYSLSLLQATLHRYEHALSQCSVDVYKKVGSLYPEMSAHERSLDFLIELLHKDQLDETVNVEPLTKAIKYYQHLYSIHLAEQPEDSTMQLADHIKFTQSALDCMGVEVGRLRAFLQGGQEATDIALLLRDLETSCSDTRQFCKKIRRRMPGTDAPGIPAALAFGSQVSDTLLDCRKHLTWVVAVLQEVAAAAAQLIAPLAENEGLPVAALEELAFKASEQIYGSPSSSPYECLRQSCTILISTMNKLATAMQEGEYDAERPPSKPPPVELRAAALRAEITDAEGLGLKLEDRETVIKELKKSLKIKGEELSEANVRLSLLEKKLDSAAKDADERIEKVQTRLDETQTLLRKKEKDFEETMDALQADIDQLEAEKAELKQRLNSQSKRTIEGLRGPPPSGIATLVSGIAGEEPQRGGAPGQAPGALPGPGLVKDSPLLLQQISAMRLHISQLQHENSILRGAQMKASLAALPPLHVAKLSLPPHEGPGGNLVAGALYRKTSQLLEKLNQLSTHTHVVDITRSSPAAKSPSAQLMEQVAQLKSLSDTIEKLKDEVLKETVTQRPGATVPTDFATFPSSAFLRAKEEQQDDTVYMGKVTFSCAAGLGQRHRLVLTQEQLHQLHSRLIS

T1: GFP-AP5Z1 (UniProt O43299)
T1 sequence: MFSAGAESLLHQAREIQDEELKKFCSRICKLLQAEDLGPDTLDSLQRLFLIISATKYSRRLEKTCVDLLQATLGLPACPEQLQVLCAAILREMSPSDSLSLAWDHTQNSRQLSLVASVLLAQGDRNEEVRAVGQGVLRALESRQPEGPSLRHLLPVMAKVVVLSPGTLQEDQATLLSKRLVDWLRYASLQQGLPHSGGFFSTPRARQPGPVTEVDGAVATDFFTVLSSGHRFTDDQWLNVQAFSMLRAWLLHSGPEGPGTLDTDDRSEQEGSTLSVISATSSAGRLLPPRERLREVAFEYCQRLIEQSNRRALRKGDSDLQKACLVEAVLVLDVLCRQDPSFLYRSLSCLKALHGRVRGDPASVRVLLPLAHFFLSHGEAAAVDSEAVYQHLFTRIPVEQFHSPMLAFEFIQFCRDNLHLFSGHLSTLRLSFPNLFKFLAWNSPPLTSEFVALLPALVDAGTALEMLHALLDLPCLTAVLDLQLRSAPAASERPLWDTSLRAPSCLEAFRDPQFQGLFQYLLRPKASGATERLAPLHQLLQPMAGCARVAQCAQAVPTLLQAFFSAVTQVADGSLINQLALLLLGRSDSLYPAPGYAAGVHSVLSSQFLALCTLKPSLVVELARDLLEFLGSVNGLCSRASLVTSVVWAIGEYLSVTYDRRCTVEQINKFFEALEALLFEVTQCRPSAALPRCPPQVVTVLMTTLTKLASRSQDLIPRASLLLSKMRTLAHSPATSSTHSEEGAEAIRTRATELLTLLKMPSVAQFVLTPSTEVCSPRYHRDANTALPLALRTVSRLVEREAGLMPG


How the values were obtained:
GFP-AP5Z1 = molecular target: T1, GFP-AP5Z1; test: co-IP
spatacsin-GFP (human) = spatacsin-GFP (human) (UniProt Q96JI7); test: co-IP
spatacsin-V5 (human) = spatacsin-V5 (human) (UniProt Q96JI7); test: proximity ligation

| binding (spatacsin-GFP (human)) | Molecule | other results |
| --- | --- | --- |
| binds | spastizin (endogenous in MEFs) (from UniProt Q5DU37 1-2529) |  |
| binds | AP5Z1, overexpressed (Figure 5D) (protein, UniProt O43299 1-807) MFSAGAESLLHQAREIQDEELKKFCSRICKLLQAEDLGPDTLDSLQRLFLIISATKYSRRLEKTCVDLLQATLGLPACPEQLQVLCAAILREMSPSDSLSLAWDHTQNSRQLSLVASVLLAQGDRNEEVRAVGQGVLRALESRQPEGPSLRHLLPVMAKVVVLSPGTLQEDQATLLSKRLVDWLRYASLQQGLPHSGGFFSTPRARQPGPVTEVDGAVATDFFTVLSSGHRFTDDQWLNVQAFSMLRAWLLHSGPEGPGTLDTDDRSEQEGSTLSVISATSSAGRLLPPRERLREVAFEYCQRLIEQSNRRALRKGDSDLQKACLVEAVLVLDVLCRQDPSFLYRSLSCLKALHGRVRGDPASVRVLLPLAHFFLSHGEAAAVDSEAVYQHLFTRIPVEQFHSPMLAFEFIQFCRDNLHLFSGHLSTLRLSFPNLFKFLAWNSPPLTSEFVALLPALVDAGTALEMLHALLDLPCLTAVLDLQLRSAPAASERPLWDTSLRAPSCLEAFRDPQFQGLFQYLLRPKASGATERLAPLHQLLQPMAGCARVAQCAQAVPTLLQAFFSAVTQVADGSLINQLALLLLGRSDSLYPAPGYAAGVHSVLSSQFLALCTLKPSLVVELARDLLEFLGSVNGLCSRASLVTSVVWAIGEYLSVTYDRRCTVEQINKFFEALEALLFEVTQCRPSAALPRCPPQVVTVLMTTLTKLASRSQDLIPRASLLLSKMRTLAHSPATSSTHSEEGAEAIRTRATELLTLLKMPSVAQFVLTPSTEVCSPRYHRDANTALPLALRTVSRLVEREAGLMPG |  |

Continued, molecule first:

| Molecule | binding (spatacsin-GFP (human)) | other results |
| --- | --- | --- |
| p150^Glued (dynein/dynactin subunit) (from UniProt O08788 1-1281) |  | binding (GFP-AP5Z1): binds |
| spastizin-HA (from UniProt Q68DK2 1-2539) |  | binding (spatacsin-V5 (human)): binds |
| AP5Z1 (endogenous in MEFs) (protein, UniProt Q3U829 1-807) MFSAGAESLLHQAREIQDEELRRFCSRVTKLLQEAPGPATVDALQRLFLIVSATKYPRRLEKMCVDLLQTTLCLPASPEQLQVLCAAILREMSPFNDLALSCDHTPNTRQLSLVASVLLAQGDRKGEIRCVSQRIFKILENRQPEGPSVRPLLPILSKVIGLAPGILMEDQTNLLSKRLVDWLRYASIQQGLPYSGGFFSTPRTRQPGPITEVDGAVASDFFTVLSTGQHFTEDQWVNMQAFSMLRKWLLHSGPEDPCSPDADDKSELEGSTLSVLSAASTASRLLPPRERLREVAFEYCQRLLEQSNRRALRKGDSDLQKACLVEAVSVLDVLCRQDPSFLYRTLSCLKALHRRLGEDPGSERALVPLAQFFLNHGEAAAMDAEAVYGQLLRGLPSERFHSPTLAFEVIHFCTHNLALFDSHFLSLLRLSFPSLFKFLAWNSPPLTAEFVVLLPALVDAGTAVEMLHALLDLPCLTAALDLQLRSTQTPSERLLWDISLRVPSCLEAFQDPQFQGLFRHLLRTKASGSTERLTPLHQVLKPMASCARVTQCAEAVPVLLQAFFSAVTQTADGALINQLALLLLERSDSLYPVPQYEARVHGVLSSQLLVLCKLKPSLVVELSRELLEFVGSVSSIHSRASVFTCVVWAIGEYLSVTWDKRCTAEQINKFFEALEALLFEVTQSRPLADLPCCPPEVVTALMTTLTKLASRSQDLIPRVSLFLSKMRTLAQNPATSSVHSEEGAESIRTRASELLTLLKMPSVAQFVFTPPAGVCQPRYHRDTNVALPLALRTVSRLVEKEAGLLPG | binds |  |
